Measurements reported in patent publication US20130144068A1, “Methods for the Sterilization of Bendamustine” (Cephalon, Inc., priority 2010, published 2013).

Assay: Sterility testing per USP <71> of sterilized bendamustine HCl

Measured: Sterility USP <71> result

Cl.Cn1c(CCCC(=O)O)nc2cc(N(CCCl)CCCl)ccc21 [bendamustine HCl, Bendamustine hydrochloride]
No growth observed: after E-beam sterilization, about 30 kGy | after dry heat sterilization (140° C. for 180 minutes or 150° C. for 150 minutes) | after gamma irradiation, 29.3 kGy to about 32.3 kGy
